No constants are given. Whether binding was seen depends on the method and setting. Some results given as binding are weak or reduced against the parent protein; the word gives no strength.
Target: T1, MED25 subunit of the Mediator of RNA polymerase II transcription complex (UniProt Q7XYY2)
T1 sequence (looked up): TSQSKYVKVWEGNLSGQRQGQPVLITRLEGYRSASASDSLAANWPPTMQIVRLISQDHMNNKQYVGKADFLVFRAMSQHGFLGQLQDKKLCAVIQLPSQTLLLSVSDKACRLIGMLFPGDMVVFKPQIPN
Assay: yeast two-hybrid, MED25 bait and MYC3 mutant prey

By UniProt entry, the sequences of proteins in these tests, tags left out. Where a name states a change or a piece, a line headed by the entry shows the natural chain unless it says otherwise.
UniProt Q9FIP9: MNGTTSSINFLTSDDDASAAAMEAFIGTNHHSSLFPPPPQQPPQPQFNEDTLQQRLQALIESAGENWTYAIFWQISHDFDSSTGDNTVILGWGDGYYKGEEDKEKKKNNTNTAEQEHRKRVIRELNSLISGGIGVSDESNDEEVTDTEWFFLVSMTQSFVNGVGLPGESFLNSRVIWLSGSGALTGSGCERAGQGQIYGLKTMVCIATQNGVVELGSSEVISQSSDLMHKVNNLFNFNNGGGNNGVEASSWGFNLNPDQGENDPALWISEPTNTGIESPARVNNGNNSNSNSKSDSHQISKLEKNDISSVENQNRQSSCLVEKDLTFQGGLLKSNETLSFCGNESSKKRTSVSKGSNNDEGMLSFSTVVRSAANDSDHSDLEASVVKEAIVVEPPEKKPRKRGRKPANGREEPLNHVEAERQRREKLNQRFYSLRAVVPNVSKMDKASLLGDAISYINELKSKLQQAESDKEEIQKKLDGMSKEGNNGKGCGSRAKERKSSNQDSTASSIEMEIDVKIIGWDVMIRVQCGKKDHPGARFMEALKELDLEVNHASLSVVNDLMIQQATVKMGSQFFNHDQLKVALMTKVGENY

Substance | binding
MYC3^E148A/M155A (from UniProt Q9FIP9 1-592) | binds
MYC3^L152A (from UniProt Q9FIP9 1-592) | binds

Source: US12428651B2, “Transcription factors to improve resistance to environmental stress in plants” (Board of Trustees of Michigan State University, priority 2016, dated 2025)
